The supplement of paper PMC10849652
Some of the results follow.

Sequences of proteins named here, by UniProt entry; tags and fusion partners are left off. A change or cut given only in a name is not applied to a line headed by its entry.
UniProt Q9BV73: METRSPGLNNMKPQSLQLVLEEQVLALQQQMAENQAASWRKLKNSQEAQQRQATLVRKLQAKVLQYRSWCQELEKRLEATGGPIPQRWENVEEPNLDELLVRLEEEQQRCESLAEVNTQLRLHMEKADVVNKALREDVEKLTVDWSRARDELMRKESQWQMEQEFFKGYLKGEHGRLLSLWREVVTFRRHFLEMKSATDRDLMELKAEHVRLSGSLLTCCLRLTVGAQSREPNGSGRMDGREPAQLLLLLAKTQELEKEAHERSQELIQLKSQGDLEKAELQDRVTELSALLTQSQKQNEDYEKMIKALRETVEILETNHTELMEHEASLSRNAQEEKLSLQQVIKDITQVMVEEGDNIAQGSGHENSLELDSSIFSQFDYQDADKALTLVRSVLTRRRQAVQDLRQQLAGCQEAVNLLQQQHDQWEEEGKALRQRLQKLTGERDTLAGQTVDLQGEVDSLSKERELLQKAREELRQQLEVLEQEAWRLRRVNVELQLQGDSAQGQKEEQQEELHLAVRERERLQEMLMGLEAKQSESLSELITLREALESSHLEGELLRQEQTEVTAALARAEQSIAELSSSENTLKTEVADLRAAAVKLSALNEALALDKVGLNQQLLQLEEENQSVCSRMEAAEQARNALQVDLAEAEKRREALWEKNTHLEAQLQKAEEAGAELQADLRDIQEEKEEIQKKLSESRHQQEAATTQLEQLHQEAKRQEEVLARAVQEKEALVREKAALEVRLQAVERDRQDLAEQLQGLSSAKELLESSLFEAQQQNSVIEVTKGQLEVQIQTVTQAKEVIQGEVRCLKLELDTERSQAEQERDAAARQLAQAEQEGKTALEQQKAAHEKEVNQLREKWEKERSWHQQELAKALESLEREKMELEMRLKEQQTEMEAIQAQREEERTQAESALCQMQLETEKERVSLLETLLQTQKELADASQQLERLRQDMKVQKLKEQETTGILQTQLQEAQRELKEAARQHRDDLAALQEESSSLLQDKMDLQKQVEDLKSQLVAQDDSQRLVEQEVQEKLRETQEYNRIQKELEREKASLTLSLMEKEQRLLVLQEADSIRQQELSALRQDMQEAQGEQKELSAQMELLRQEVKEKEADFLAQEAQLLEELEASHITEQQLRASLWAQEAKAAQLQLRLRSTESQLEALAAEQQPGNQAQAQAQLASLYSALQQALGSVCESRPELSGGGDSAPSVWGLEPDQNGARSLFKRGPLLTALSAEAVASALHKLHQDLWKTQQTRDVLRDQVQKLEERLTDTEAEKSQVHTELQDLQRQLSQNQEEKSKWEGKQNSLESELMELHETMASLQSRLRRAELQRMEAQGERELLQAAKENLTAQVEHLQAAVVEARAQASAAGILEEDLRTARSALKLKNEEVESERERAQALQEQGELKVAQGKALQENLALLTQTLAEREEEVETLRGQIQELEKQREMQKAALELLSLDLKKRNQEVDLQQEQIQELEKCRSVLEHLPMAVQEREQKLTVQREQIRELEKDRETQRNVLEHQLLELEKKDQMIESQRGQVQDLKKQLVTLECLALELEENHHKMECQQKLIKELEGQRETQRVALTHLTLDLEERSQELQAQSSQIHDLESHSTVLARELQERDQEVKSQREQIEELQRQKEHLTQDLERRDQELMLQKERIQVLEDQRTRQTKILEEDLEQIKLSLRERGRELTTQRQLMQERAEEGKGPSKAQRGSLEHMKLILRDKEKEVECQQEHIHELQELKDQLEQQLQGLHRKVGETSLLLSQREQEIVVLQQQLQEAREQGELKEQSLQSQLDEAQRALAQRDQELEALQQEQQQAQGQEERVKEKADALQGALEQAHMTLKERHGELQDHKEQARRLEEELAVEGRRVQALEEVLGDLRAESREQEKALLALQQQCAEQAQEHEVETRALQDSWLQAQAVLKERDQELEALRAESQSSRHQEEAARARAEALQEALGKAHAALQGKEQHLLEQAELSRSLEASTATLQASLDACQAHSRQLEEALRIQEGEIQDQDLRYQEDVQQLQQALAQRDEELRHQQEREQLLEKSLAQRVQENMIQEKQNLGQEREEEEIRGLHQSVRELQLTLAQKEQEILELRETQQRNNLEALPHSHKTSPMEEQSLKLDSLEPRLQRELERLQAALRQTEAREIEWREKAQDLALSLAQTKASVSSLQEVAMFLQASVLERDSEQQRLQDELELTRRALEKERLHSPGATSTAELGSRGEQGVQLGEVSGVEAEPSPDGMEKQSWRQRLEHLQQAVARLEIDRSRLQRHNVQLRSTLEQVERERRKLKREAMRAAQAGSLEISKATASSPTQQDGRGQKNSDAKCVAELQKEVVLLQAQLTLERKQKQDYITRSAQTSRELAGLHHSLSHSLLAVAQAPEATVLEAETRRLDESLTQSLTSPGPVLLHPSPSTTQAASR
UniProt Q9NYV4, whole entry, looked up: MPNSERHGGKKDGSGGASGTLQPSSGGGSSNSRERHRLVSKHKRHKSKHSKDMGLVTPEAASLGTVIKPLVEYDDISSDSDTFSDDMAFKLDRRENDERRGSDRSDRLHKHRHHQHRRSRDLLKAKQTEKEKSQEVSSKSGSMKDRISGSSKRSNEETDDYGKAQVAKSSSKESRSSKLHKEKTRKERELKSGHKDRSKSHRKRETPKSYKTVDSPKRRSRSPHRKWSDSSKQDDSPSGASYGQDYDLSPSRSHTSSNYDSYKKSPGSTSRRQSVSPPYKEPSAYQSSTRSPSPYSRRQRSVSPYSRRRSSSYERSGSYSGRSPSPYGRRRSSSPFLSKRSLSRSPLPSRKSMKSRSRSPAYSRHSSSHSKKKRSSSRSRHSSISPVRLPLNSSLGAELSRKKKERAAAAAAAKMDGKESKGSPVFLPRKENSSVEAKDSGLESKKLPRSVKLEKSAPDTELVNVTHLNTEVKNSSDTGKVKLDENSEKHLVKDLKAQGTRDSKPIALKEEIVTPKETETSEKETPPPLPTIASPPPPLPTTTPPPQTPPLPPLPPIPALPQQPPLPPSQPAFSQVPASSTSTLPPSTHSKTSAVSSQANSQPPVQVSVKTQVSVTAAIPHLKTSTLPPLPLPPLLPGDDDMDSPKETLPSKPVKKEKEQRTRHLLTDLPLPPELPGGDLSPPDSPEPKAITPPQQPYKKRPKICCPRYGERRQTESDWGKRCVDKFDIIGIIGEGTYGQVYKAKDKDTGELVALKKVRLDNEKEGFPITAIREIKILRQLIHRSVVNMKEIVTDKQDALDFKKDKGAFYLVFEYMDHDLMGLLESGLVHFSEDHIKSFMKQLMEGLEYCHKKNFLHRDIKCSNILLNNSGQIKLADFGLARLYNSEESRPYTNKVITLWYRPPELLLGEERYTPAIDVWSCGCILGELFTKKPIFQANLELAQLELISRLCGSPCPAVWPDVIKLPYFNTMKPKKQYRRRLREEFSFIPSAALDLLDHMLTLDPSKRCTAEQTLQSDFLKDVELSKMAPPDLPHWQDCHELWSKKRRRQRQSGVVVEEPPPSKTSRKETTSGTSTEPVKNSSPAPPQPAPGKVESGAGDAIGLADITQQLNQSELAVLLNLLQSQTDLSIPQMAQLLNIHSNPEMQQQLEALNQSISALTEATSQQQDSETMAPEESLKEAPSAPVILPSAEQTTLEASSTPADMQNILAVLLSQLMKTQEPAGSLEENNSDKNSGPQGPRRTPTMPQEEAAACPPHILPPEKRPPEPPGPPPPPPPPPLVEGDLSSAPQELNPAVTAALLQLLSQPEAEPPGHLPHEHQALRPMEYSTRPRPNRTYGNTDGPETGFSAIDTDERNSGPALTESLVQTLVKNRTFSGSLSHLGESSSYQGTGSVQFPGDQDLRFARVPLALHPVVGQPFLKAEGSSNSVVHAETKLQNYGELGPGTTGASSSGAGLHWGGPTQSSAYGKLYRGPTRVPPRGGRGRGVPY
UniProt P17676: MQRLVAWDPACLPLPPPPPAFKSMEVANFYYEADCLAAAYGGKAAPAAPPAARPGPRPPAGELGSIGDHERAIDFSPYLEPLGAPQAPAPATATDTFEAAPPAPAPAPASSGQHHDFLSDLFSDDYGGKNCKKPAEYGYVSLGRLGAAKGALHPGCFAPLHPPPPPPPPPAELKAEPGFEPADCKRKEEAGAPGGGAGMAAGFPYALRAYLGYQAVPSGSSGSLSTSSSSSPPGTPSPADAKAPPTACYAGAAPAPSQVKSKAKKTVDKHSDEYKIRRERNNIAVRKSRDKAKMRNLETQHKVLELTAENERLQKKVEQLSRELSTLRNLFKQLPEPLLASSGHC
UniProt Q13112, whole entry, looked up: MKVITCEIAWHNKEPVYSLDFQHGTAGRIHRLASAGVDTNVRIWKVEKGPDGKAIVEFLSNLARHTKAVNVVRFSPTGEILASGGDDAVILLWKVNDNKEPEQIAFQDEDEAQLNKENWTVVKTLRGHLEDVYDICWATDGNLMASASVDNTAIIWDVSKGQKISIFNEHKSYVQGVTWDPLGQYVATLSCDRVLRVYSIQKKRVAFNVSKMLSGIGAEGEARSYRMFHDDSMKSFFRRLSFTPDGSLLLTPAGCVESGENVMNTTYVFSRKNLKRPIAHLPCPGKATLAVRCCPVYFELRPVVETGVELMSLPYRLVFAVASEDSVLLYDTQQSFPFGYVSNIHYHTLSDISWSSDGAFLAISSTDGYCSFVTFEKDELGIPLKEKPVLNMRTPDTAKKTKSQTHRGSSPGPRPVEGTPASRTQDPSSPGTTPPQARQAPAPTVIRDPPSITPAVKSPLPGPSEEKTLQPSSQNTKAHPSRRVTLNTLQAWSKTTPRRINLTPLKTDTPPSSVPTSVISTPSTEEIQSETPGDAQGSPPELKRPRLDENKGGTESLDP

How the values were obtained:
Experiment in all cases: log2 fold change, soluble protein after heating vs DMSO (PISA); higher = thermal stabilisation; K562 cells, 10 uM, 30 min; active = over 0.2 and 3.5 SD of the protein, either way, in both replicates (recomputed)
[1] = compound: CC[C@@H]1C(=O)N(C)c2cnc(Nc3ccc(C(=O)NC4CCN(C)CC4)cc3OC)nc2N1C1CCCC1
How it was run: (§1)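 Thermal stability values are relative to control samples and come from duplicates. They are expressed as log2 fold changes. For measurement, K562 cells (2×10^6 cells/mL) received 10 μM compound for 30 min, and aliquots were heated for 3 min over 48°C-58°C, pooled, and extracted at 4°C in PBS with 0.5% NP-40. Soluble protein, the supernatant after 21,000xg for 90 min, was quantified by TMTpro 16plex LC-MS/MS with equalised channel sums.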

volasertib = compound: CC[C@@H]1C(=O)N(C)c2cnc(Nc3ccc(C(=O)N[C@H]4CC[C@H](N5CCN(CC6CC6)CC5)CC4)cc3OC)nc2N1C(C)C [volasertib]
How it was run: as §1

[2] = compound: CC[C@H](C)N1C=C(C2=C(C=C(C=C21)C3=CN=C(C=C3)N4CCNCC4)C(=O)NCC5=C(C=C(NC5=O)C)C)C
How it was run: as §1

epoxomicin = compound: CC[C@H](C)[C@@H](C(=O)N[C@@H]([C@@H](C)O)C(=O)N[C@@H](CC(C)C)C(=O)[C@]1(CO1)C)NC(=O)[C@H]([C@@H](C)CC)N(C)C(=O)C [epoxomicin]
How it was run: as §1

[3] = compound: CCn1c(C(=O)N(C2CC2)C2CC2)cc2c3c(ncn3C)c(Nc3cc(C)n(C)n3)nc21
How it was run: as §1

[4] = compound: CN(C)CC(=O)Nc1ccc2[nH]c(=O)c3ccccc3c2c1
How it was run: as §1

rosiglitazone = compound: CN(CCOC1=CC=C(C=C1)C[C@H]2C(=O)NC(=O)S2)C3=CC=CC=N3 (racemic) [rosiglitazone]
How it was run: as §1

[5] = compound: CN1C2=C(C3=C1C(=O)N(N=C3)CC4=CC(=CC=C4)N)SC(=C2)S(=O)C
How it was run: as §1

saracatinib = compound: CN1CCN(CCOc2cc(OC3CCOCC3)c3c(Nc4c(Cl)ccc5c4OCO5)ncnc3c2)CC1 [saracatinib]
How it was run: as §1

sotrastaurin = compound: CN1CCN(c2nc(C3=C(c4c[nH]c5ccccc45)C(=O)NC3=O)c3ccccc3n2)CC1 [sotrastaurin]
How it was run: as §1

alvocidib = compound: CN1CC[C@H](c2c(O)cc(O)c3c(=O)cc(-c4ccccc4Cl)oc23)[C@H](O)C1 [alvocidib]
How it was run: as §1

Tubastatin A = compound: CN1CCc2c(c3ccccc3n2Cc2ccc(C(=O)NO)cc2)C1 [Tubastatin A]
How it was run: as §1

[6] = compound: CNC(=O)C1=CC=CC=C1NC2=NC(=NC=C2Cl)NC3=C(C=C(C=C3)N4CCOCC4)OC
How it was run: as §1

defactinib = compound: CNC(=O)c1ccc(Nc2ncc(C(F)(F)F)c(NCc3nccnc3N(C)S(C)(=O)=O)n2)cc1 [defactinib]
How it was run: as §1

rucaparib = compound: CNCc1ccc(-c2[nH]c3cc(F)cc4c3c2CCNC4=O)cc1 [rucaparib]
How it was run: as §1

[7] = compound: CNc1nc(-c2ccc3c(N)n[nH]c3c2)cc(N2C[C@@H](C(=O)NC3CCCCC3)CC[C@H]2C)n1
How it was run: as §1

encorafenib = compound: COC(=O)N[C@@H](C)CNc1nccc(-c2cn(C(C)C)nc2-c2cc(Cl)cc(NS(C)(=O)=O)c2F)n1 [encorafenib]
How it was run: as §1

[8] = compound: COC(=O)[C@H](CCSC)NC(=O)C1=C(C=C(C=C1)NC[C@H](CS)N)C2=CC=CC=C2
How it was run: as §1

[9] = compound: CCn1cc(-c2ccnc3[nH]c(-c4cccc(CN(C)C)c4)cc23)c(-c2ccc(NC(=O)N(C)C)cc2)n1
How it was run: as §1

[10] = compound: CN1CCC(CNc2ccc3ncc(-c4cccc(OC(F)(F)F)c4)n3n2)CC1
How it was run: as §1

Measured: log2 fold change

CEP250 (UniProt Q9BV73)
inactive: [1] 0.139 | volasertib 0.01 | [2] -0.128 | epoxomicin -0.138 | [3] -0.163 | [4] 0.078 | rosiglitazone 0.122 | [5] 0.028 | saracatinib 0.041 | sotrastaurin -0.062 | alvocidib -0.071 | Tubastatin A -0.021 | [6] 0.071 | defactinib -0.027 | rucaparib 0.013 | [7] 0.031 | encorafenib -0.021 | [8] -0.13

CHCHD1 (UniProt Q96BP2)
inactive: [1] -0.054 | volasertib -0.32 | [2] -0.001 | epoxomicin -0.026 | [9] -0.009 | [4] 0.02 | [5] 0.033 | [10] -0.191 | saracatinib -0.069 | sotrastaurin 0.059 | Tubastatin A -0.025 | [6] 0.132 | defactinib 0.017 | rucaparib 0.114 | [7] 0.04 | encorafenib -0.037 | [8] -0.024

CDK12 (UniProt Q9NYV4)
inactive: [1] 0.147 | volasertib 0.237 | [2] 0.016 | epoxomicin -0.363 | [9] 0.041 | [4] -0.027 | [5] 0.392 | [10] -0.102 | saracatinib -0.113 | sotrastaurin -0.406 | Tubastatin A 0.165 | [6] -0.309 | defactinib -0.052 | rucaparib 0.072 | [7] 0.003 | encorafenib 0.09 | [8] 0.157

CEBPB (UniProt P17676)
inactive: [1] 0.109 | volasertib -0.052 | [2] -0.09 | epoxomicin -0.14 | [3] 0.122 | [9] 0.113 | rosiglitazone 0.027 | [5] 0.006 | [10] 0.213 | saracatinib 0.123 | alvocidib 0.148 | Tubastatin A -0.304 | [6] -0.002 | rucaparib 0.122 | [7] 0.046 | encorafenib 0.026

CHAF1B (UniProt Q13112)
inactive: [1] 0.019 | volasertib 0.02 | [2] -0.053 | epoxomicin -0.016 | [3] 0.024 | [9] -0.012 | [4] -0.029 | rosiglitazone 0.007 | [5] -0.037 | [10] -0.014 | saracatinib 0.011 | sotrastaurin 0.007 | alvocidib 0.019 | Tubastatin A -0.027 | [6] -0.069 | defactinib 0.003 | rucaparib -0.021 | [7] -0.055 | encorafenib -0.028 | [8] 0.008
